In the supplement of paper PMC10849652:
The other results are listed elsewhere or left out.

Sequences of proteins named here, by UniProt entry; tags and fusion partners are left off. A change or cut given only in a name is not applied to a line headed by its entry.
UniProt P50579: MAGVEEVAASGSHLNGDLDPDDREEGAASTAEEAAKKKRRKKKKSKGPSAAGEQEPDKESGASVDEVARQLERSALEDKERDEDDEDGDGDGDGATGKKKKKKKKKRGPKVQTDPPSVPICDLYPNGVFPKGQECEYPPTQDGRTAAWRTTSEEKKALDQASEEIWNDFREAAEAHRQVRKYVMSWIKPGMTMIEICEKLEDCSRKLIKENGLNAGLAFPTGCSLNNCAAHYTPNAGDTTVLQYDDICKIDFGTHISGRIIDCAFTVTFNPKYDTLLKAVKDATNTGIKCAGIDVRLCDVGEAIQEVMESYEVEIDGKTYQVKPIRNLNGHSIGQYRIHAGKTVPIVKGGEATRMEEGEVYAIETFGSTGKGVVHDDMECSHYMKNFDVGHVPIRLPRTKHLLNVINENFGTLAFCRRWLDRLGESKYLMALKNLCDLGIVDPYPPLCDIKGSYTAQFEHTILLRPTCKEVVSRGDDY
UniProt P40926: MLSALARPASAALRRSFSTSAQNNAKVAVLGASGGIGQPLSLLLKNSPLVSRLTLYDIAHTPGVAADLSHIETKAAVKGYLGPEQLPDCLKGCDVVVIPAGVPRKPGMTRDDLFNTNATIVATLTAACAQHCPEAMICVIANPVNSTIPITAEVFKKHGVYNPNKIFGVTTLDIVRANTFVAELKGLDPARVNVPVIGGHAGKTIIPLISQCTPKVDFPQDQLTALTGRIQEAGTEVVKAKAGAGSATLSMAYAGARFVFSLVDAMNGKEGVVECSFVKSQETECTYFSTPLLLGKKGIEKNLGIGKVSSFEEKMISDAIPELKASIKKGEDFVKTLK
UniProt Q8IVS2: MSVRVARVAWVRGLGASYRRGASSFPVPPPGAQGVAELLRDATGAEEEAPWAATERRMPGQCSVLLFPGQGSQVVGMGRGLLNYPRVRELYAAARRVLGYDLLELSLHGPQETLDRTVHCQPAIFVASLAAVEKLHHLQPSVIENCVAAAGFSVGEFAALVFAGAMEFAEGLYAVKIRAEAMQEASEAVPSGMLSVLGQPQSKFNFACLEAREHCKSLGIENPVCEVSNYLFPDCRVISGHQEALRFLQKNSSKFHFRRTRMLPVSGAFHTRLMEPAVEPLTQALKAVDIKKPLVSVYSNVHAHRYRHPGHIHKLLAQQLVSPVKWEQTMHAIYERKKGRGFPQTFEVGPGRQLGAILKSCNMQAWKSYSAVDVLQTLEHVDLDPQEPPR
UniProt Q99735: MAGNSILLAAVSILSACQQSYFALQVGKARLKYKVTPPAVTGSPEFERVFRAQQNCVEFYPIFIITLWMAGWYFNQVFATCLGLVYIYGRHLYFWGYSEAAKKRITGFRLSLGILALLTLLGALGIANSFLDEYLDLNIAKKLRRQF
UniProt P55081: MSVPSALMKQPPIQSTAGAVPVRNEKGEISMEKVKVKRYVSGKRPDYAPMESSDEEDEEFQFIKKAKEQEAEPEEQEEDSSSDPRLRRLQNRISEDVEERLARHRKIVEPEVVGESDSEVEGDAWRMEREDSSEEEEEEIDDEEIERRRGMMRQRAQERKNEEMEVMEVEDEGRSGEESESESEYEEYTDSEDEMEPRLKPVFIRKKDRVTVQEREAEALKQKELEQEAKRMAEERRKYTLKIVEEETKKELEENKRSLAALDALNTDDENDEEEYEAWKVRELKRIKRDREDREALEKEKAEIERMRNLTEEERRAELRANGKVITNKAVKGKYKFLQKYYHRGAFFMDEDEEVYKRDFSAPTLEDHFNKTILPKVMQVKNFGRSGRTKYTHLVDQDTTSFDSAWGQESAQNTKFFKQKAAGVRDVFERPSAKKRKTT
UniProt Q09328: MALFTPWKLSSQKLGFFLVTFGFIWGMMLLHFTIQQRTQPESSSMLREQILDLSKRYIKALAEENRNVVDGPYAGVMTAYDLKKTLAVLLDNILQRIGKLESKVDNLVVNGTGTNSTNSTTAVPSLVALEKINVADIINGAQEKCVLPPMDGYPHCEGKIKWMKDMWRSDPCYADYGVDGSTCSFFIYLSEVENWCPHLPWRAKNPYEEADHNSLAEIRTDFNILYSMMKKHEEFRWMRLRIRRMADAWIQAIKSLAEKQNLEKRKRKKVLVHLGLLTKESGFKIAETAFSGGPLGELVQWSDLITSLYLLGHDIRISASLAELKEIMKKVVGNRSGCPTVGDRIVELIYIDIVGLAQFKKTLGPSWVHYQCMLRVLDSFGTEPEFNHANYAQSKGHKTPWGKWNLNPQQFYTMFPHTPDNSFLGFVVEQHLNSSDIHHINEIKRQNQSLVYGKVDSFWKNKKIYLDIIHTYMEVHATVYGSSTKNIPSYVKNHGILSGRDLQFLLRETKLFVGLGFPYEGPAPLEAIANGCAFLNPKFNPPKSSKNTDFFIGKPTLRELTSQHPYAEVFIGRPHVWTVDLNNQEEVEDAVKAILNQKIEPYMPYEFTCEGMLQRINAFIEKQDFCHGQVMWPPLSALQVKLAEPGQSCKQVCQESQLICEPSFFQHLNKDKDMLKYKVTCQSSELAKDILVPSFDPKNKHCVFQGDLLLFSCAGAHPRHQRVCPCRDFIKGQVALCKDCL
UniProt Q5JRA6: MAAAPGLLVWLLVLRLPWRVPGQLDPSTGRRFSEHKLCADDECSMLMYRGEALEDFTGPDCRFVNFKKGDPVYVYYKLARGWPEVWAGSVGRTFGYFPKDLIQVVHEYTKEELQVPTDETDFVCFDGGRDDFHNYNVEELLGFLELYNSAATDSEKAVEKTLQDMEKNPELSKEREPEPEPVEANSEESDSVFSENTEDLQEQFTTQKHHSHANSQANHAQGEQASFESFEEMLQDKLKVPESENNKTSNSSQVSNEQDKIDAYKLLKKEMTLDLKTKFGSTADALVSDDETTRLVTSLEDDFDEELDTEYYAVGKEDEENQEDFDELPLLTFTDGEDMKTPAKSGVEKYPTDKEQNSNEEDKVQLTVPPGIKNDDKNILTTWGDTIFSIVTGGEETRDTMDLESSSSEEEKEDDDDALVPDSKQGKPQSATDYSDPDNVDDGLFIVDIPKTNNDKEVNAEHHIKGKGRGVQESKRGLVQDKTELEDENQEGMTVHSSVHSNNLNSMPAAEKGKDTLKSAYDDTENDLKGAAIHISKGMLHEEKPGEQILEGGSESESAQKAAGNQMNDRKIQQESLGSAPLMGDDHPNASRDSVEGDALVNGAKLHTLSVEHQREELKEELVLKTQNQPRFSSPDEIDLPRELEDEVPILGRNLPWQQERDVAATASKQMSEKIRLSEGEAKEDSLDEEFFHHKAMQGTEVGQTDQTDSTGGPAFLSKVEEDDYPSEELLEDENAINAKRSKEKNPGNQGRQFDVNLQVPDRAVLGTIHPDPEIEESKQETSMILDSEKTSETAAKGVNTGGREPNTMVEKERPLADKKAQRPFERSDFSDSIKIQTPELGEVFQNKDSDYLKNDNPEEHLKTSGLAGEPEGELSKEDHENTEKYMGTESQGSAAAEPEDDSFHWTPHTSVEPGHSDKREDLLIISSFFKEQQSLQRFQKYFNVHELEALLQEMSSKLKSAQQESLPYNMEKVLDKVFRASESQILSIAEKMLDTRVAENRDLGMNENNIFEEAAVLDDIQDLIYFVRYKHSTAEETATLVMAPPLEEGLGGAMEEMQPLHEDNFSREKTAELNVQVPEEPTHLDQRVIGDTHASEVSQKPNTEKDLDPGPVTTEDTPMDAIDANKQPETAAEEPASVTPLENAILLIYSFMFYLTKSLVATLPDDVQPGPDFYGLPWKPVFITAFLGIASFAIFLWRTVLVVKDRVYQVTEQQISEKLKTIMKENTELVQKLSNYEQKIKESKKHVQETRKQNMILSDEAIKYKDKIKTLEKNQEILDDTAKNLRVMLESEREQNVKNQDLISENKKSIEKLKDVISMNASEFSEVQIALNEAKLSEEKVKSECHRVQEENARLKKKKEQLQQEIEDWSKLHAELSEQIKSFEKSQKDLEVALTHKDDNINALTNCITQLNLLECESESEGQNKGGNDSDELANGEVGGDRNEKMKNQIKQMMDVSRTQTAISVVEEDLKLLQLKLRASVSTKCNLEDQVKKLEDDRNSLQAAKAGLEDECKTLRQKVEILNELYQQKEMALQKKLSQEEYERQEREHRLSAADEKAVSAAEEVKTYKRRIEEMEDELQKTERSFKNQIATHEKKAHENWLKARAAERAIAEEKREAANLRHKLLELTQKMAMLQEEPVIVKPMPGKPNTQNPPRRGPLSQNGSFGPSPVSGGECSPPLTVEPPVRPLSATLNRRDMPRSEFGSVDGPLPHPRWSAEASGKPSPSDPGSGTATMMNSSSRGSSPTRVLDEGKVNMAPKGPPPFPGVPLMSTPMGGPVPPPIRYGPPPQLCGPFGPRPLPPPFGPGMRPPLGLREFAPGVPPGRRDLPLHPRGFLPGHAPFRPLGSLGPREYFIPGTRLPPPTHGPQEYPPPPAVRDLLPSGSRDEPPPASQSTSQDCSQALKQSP
UniProt Q96HR3: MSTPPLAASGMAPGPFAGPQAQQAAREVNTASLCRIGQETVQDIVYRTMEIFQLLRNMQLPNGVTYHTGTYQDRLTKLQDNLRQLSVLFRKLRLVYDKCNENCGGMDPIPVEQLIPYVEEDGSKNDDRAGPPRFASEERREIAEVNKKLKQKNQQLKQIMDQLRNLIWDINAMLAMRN
UniProt Q9H8H3: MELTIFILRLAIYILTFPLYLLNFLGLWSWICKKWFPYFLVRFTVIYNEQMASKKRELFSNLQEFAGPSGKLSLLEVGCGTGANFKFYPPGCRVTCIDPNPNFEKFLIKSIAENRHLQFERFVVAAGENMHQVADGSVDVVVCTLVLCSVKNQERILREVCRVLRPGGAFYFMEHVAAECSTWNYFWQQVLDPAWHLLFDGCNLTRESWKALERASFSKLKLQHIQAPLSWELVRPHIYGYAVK
UniProt Q96GW9: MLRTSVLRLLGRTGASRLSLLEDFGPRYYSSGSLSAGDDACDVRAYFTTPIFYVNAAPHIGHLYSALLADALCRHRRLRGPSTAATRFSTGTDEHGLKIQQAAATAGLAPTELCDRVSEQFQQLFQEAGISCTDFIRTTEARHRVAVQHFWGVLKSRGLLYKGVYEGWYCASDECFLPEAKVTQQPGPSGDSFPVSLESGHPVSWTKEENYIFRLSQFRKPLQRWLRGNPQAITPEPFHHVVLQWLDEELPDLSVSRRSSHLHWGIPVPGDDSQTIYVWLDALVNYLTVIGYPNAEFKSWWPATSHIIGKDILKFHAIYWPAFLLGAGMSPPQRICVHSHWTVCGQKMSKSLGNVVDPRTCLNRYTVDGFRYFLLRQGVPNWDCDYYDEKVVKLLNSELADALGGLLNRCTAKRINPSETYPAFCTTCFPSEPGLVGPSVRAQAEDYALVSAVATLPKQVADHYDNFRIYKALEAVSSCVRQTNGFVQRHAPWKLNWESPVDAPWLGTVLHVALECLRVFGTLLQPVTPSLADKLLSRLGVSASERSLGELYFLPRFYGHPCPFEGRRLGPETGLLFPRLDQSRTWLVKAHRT
UniProt Q9NRN9: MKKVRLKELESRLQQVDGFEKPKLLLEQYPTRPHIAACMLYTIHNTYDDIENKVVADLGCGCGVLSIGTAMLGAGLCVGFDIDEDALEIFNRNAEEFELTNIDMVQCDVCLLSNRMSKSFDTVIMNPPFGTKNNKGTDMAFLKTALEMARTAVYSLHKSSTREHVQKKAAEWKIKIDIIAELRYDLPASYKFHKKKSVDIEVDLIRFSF
UniProt Q9NR56: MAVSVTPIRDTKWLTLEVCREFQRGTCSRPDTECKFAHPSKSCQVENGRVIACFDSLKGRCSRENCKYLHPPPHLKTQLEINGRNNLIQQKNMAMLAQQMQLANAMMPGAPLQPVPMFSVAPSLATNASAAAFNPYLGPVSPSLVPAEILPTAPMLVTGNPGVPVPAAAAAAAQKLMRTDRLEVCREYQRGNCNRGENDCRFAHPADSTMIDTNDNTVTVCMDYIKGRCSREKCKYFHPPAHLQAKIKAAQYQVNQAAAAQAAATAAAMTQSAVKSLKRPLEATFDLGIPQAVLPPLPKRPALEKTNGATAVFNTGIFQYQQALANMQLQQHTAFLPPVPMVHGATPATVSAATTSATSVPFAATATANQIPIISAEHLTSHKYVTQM
UniProt Q86V88: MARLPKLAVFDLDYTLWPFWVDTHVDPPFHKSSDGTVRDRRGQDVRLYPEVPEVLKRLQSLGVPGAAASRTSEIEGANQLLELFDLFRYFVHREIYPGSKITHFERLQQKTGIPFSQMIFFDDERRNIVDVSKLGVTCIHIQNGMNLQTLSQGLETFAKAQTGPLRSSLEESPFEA

Columns and labels:
Test in all cases: log2 fold change, soluble protein after heating vs DMSO (PISA); higher = thermal stabilisation; K562 cells, 10 uM, 30 min; active = over 0.2 and 3.5 SD of the protein, either way, in both replicates (recomputed)
[1] = compound: CN1CCN(CCOc2cc(OC3CCOCC3)c3c(Nc4c(Cl)ccc5c4OCO5)ncnc3c2)CC1 [saracatinib]
Outline: (§1)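 For each measurement, 10 μM compound was applied for 30 min to K562 cells at 2×10^6 cells/mL. Aliquots were heated for 3 min across 48°C-58°C, pooled, and extracted in PBS with 0.5% NP-40 at 4°C; the supernatant after 21,000xg for 90 min was soluble protein. This was quantified by TMTpro 16plex LC-MS/MS with channel sums equalised, and thermal stability was reported relative to control samples from duplicates, on a log2 fold-change scale.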

[2] = compound: CN1CCN(c2nc(C3=C(c4c[nH]c5ccccc45)C(=O)NC3=O)c3ccccc3n2)CC1 [sotrastaurin]
Outline: as §1

[3] = compound: CN1CC[C@H](c2c(O)cc(O)c3c(=O)cc(-c4ccccc4Cl)oc23)[C@H](O)C1 [alvocidib]
Outline: as §1

[4] = compound: CN1CCc2c(c3ccccc3n2Cc2ccc(C(=O)NO)cc2)C1 [Tubastatin A]
Outline: as §1

[5] = compound: CNC(=O)C1=CC=CC=C1NC2=NC(=NC=C2Cl)NC3=C(C=C(C=C3)N4CCOCC4)OC
Outline: as §1

[6] = compound: CNC(=O)c1ccc(Nc2ncc(C(F)(F)F)c(NCc3nccnc3N(C)S(C)(=O)=O)n2)cc1 [defactinib]
Outline: as §1

[7] = compound: CNCc1ccc(-c2[nH]c3cc(F)cc4c3c2CCNC4=O)cc1 [rucaparib]
Outline: as §1

[8] = compound: CNc1nc(-c2ccc3c(N)n[nH]c3c2)cc(N2C[C@@H](C(=O)NC3CCCCC3)CC[C@H]2C)n1
Outline: as §1

[9] = compound: COC(=O)N[C@@H](C)CNc1nccc(-c2cn(C(C)C)nc2-c2cc(Cl)cc(NS(C)(=O)=O)c2F)n1 [encorafenib]
Outline: as §1

[10] = compound: COC(=O)[C@H](CCSC)NC(=O)C1=C(C=C(C=C1)NC[C@H](CS)N)C2=CC=CC=C2
Outline: as §1

[11] = compound: COC1=CC=C(C=C1)CN2C=CC3=C2C=C(C=C3)C(=O)NO
Outline: as §1

[12] = compound: CON(C)C(=O)N1N=C(c2cc(F)ccc2F)S[C@@]1(CCCN)c1ccccc1 [filanesib]
Outline: as §1

[13] = compound: CO[C@H]1C[C@@H]2CC[C@@H](C)[C@@](O)(O2)C(=O)C(=O)N2CCCC[C@H]2C(=O)O[C@H]([C@H](C)C[C@@H]2CC[C@H](n3cnnn3)[C@H](OC)C2)CC(=O)[C@H](C)/C=C(\C)[C@@H](O)[C@@H](OC)C(=O)[C@H](C)C[C@H](C)/C=C/C=C/C=C/1C [zotarolimus]
Outline: as §1

[14] = compound: COc1cc(C(=O)O)ccc1NC(=O)[C@@H]1N[C@@H](CC(C)(C)C)[C@](C#N)(c2ccc(Cl)cc2F)[C@H]1c1cccc(Cl)c1F [idasanutlin]
Outline: as §1

[15] = compound: COc1cc(Nc2ncc3c(n2)-c2ccc(Cl)cc2C(c2c(F)cccc2OC)=NC3)ccc1C(=O)O [alisertib]
Outline: as §1

[16] = compound: COc1cc2nc(-c3cc(F)ccc3O)nc(N[C@@H]3CNC[C@H]3C(C)(C)O)c2cc1OC
Outline: as §1

[17] = compound: COc1cc2ncnc(Nc3ccc(F)c(Cl)c3)c2cc1OCCCN1CCOCC1 [gefitinib]
Outline: as §1

[18] = compound: COc1cccc2cc(-c3nc([C@H]4CC[C@H](C(=O)O)CC4)n4ncnc(N)c34)[nH]c12
Outline: as §1

[19] = compound: CS(=O)(=O)CCNCc1ccc(-c2ccc3ncnc(Nc4ccc(OCc5cccc(F)c5)c(Cl)c4)c3c2)o1 [lapatinib]
Outline: as §1

[20] = compound: CS(=O)(=O)N1CCN(Cc2cc3nc(-c4cccc5[nH]ncc45)nc(N4CCOCC4)c3s2)CC1 [pictilisib]
Outline: as §1

Measured: log2 fold change

METAP2 (UniProt P50579)
inactive: [1] 0.05 | [2] 0.121 | [3] 0.023 | [4] -0.017 | [5] -0.018 | [6] -0.047 | [7] 0.031 | [8] -0.064 | [9] -0.06 | [10] 0.026 | [11] 0.051 | [12] 0.081 | [13] -0.022 | [14] 0.08 | [15] -0.053 | [16] -0.033 | [17] 0.033 | [18] -0.027 | [19] -0.005 | [20] -0.04

MDH2 (UniProt P40926)
inactive: [1] 0.057 | [2] 0.037 | [3] -0.014 | [4] -0.01 | [5] 0.079 | [6] -0.004 | [7] 0.012 | [8] -0.028 | [9] -0.054 | [10] 0.027 | [11] -0.02 | [12] -0.042 | [13] -0.026 | [14] -0.028 | [15] -0.001 | [16] -0.013 | [17] 0.005 | [18] 0.015 | [19] -0.01 | [20] -0.011

MCAT (UniProt Q8IVS2)
inactive: [1] 0.009 | [2] -0.012 | [3] 0.032 | [4] 0.026 | [5] 0.14 | [6] 0.086 | [7] 0.134 | [8] 0.003 | [9] 0.015 | [10] -0.002 | [11] 0 | [12] 0.081 | [13] 0.007 | [14] 0.042 | [15] -0.074 | [16] -0.064 | [17] 0.026 | [18] -0.04 | [19] 0.026 | [20] -0.075

ME1 (UniProt P48163)
inactive: [1] 0.012 | [2] 0.024 | [3] -0.029 | [4] -0.02 | [5] -0.028 | [6] 0.001 | [7] -0.085 | [8] -0.041 | [9] -0.001 | [10] 0.013 | [11] -0.084 | [12] -0.035 | [13] -0.015 | [14] -0.014 | [15] 0.055 | [16] 0.059 | [17] 0.024 | [18] 0.043 | [19] -0.024 | [20] 0.021

MCM6 (UniProt Q14566)
inactive: [1] 0 | [2] 0.026 | [3] -0.125 | [4] -0.017 | [5] -0.019 | [6] -0.1 | [7] -0.029 | [8] -0.028 | [9] 0.01 | [10] 0.008 | [11] -0.008 | [12] -0.063 | [13] 0.01 | [14] -0.032 | [15] -0.025 | [16] -0.022 | [17] -0.003 | [18] 0.032 | [19] 0.007 | [20] -0.014

MGST2 (UniProt Q99735)
inactive: [1] -0.123 | [2] 0.095 | [3] -0.013 | [4] 0.039 | [5] 0.027 | [6] 0.044 | [7] -0.047 | [8] 0.069 | [9] -0.083 | [10] 0.091 | [11] -0.009 | [12] 0.124 | [13] 0.082 | [14] -0.008 | [15] -0.012 | [16] 0.015 | [17] 0.002 | [18] 0.027 | [19] -0.196 | [20] -0.028

MFAP1 (UniProt P55081)
inactive: [1] 0.017 | [2] 0.082 | [3] 0.013 | [4] 0.036 | [5] -0.046 | [6] -0.092 | [7] -0.013 | [8] -0.09 | [9] 0.003 | [10] 0.018 | [11] -0.003 | [12] 0.105 | [13] -0.008 | [14] 0.045 | [15] -0.066 | [16] -0.021 | [17] -0.009 | [18] 0.02 | [19] 0.009 | [20] -0.017

METAP1 (UniProt P53582)
inactive: [1] -0.017 | [2] 0.047 | [3] 0.011 | [4] -0.037 | [5] -0.022 | [6] 0.02 | [7] -0.009 | [8] 0.054 | [9] -0.021 | [10] -0.022 | [11] 0.139 | [12] 0.017 | [13] -0.013 | [14] 0.034 | [15] -0.024 | [16] 0.007 | [17] 0.015 | [18] -0.022 | [19] -0.041 | [20] 0.04

MGAT5 (UniProt Q09328)
inactive: [1] 0.123 | [2] 0.053 | [3] 0.011 | [4] -0.035 | [5] 0.029 | [6] -0.038 | [7] -0.015 | [8] -0.054 | [9] -0.056 | [10] 0.14 | [11] 0 | [12] 0.116 | [13] -0.012 | [14] -0.075 | [15] -0.021 | [16] 0.001 | [17] 0.128 | [18] -0.009 | [19] -0.014 | [20] 0.038

MIA3 (UniProt Q5JRA6)
inactive: [1] -0.004 | [2] -0.06 | [3] 0.009 | [4] -0.015 | [5] -0.005 | [6] -0.035 | [7] 0.01 | [8] -0.046 | [9] 0.048 | [10] 0.008 | [11] -0.032 | [12] 0.091 | [13] 0.023 | [14] 0.033 | [15] -0.029 | [16] 0.054 | [17] 0.046 | [18] -0.028 | [19] -0.004 | [20] 0

MED30 (UniProt Q96HR3)
inactive: [1] -0.016 | [2] 0.06 | [3] -0.024 | [4] -0.037 | [5] 0.021 | [6] -0.015 | [7] -0.008 | [8] -0.085 | [9] 0.041 | [10] 0.029 | [11] -0.054 | [12] 0.109 | [13] 0.067 | [14] -0.016 | [15] -0.038 | [16] -0.051 | [17] 0 | [18] 0.159 | [19] 0.091

METTL7A (UniProt Q9H8H3)
inactive: [1] -0.018 | [2] 0.054 | [3] -0.055 | [4] -0.055 | [5] 0.073 | [6] -0.013 | [7] 0.016 | [8] -0.023 | [9] -0.022 | [10] 0.01 | [11] -0.059 | [12] -0.035 | [13] 0.05 | [14] -0.011 | [15] 0.001 | [16] -0.061 | [17] -0.023 | [18] 0.027 | [19] -0.062 | [20] 0.014

MARS2 (UniProt Q96GW9)
inactive: [1] 0.045 | [2] 0.087 | [3] -0.046 | [4] -0.055 | [5] -0.028 | [6] -0.009 | [7] 0.02 | [8] -0.027 | [9] -0.055 | [10] -0.022 | [11] -0.017 | [12] -0.027 | [13] -0.023 | [14] -0.008 | [15] -0.1 | [16] 0.002 | [17] 0.01 | [18] 0.043 | [19] 0.01 | [20] -0.072

METTL5 (UniProt Q9NRN9)
inactive: [1] 0.086 | [2] 0.045 | [3] -0.007 | [4] -0.013 | [5] -0.041 | [6] -0.034 | [7] -0.028 | [8] -0.006 | [9] -0.026 | [10] 0.005 | [11] -0.033 | [12] -0.025 | [13] -0.043 | [14] -0.041 | [15] -0.073 | [16] 0.023 | [17] 0.003 | [18] 0.075 | [19] 0.044 | [20] 0.035

MBNL1 (UniProt Q9NR56)
inactive: [1] 0.077 | [2] 0.02 | [3] 0.098 | [4] -0.105 | [5] 0.003 | [6] 0.112 | [7] 0.061 | [8] -0.082 | [9] -0.019 | [10] 0.105 | [11] -0.036 | [12] 0.007 | [13] -0.061 | [14] 0.01 | [15] -0.085 | [16] -0.004 | [17] -0.001 | [18] -0.026 | [19] -0.012 | [20] 0.018

MDP1 (UniProt Q86V88)
inactive: [1] -0.004 | [2] -0.022 | [3] 0.13 | [4] 0.062 | [5] -0.035 | [6] 0.116 | [7] -0.015 | [8] -0.038 | [9] -0.019 | [10] -0.005 | [11] -0.071 | [12] 0.067 | [13] -0.035 | [14] 0.015 | [15] 0.043 | [16] 0.097 | [17] 0.009 | [18] 0.098 | [19] 0.018 | [20] -0.007
